Reference: PMC7001992
Results are given in words; binding and its absence hold for the method and conditions named. In cells and extracts the contact can be indirect. Some entries that bind do so weakly or less than the wild type. Sequences can lack the tags named with a protein.

Chains of the proteins cited; added tags and fusions are not shown. Lines headed by an entry give the natural chain unless they say otherwise; changes in a name come on top.
UniProt P21187: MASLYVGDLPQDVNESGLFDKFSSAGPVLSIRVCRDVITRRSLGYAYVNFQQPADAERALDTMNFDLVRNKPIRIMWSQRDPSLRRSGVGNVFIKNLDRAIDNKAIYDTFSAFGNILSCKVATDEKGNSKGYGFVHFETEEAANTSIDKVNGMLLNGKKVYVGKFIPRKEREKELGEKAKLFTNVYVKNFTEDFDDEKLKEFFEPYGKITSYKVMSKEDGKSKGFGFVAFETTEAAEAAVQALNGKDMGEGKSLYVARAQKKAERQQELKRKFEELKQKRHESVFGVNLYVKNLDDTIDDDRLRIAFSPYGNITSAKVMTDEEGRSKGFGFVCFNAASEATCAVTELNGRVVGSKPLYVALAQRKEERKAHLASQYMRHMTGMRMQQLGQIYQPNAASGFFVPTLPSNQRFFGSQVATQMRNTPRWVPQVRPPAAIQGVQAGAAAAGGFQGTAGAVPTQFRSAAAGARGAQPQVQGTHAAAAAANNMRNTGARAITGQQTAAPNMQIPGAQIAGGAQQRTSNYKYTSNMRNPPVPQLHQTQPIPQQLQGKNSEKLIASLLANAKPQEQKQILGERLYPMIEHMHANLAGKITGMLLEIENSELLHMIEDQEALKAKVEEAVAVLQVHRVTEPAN

Assays:
[1] = molecular target: poly(A) binding protein (pAbp) in S2R+ cells, co-IP of Fig 5D (Drosophila) (UniProt P21187); test: co-IP; FLAG-Mkrn1 wild type or PAM2 mutant and pAbp in S2R+ cells; immunoblot; which partner was precipitated is not told
[2] = molecular target: GFP-tagged poly(A) binding protein (GFP-pAbp) (Drosophila) (UniProt P21187); test: co-IP; S2R+ cells, 2 mg protein lysate incubated 2 h with Myc-Trap or GFP-Trap beads; in the absence or presence of 50 U RNase T1; immunoblot
[3] = molecular target: T1, Myc-tagged Squid (Myc-Sqd) (Drosophila) (UniProt Q08473); test: as above
T1 sequence: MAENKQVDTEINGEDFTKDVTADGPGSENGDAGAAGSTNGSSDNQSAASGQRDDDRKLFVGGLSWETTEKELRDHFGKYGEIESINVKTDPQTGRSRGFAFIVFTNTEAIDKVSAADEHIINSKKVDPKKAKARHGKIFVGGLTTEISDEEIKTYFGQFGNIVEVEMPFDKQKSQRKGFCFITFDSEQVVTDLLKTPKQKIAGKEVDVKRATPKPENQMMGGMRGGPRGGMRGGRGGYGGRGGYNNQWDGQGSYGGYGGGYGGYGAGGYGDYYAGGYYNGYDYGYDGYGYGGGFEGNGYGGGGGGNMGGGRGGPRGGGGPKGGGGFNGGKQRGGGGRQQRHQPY

[4] = molecular target: T2, Myc-tagged maternal expression at 31B (Myc-Me31B) (Drosophila) (UniProt P23128); test: as above
T2 sequence: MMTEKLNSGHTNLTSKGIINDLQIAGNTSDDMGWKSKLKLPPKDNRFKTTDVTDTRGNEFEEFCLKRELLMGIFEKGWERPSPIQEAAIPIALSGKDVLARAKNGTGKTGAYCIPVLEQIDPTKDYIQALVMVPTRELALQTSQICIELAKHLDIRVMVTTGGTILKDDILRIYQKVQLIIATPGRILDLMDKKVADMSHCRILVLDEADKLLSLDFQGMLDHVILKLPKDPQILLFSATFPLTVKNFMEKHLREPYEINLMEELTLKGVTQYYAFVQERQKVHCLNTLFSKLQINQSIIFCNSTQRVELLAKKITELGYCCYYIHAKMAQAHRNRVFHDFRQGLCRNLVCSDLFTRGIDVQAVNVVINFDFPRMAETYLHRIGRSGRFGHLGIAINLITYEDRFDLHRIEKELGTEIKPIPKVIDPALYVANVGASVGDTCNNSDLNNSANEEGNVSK

[5] = molecular target: poly(A) binding protein (pAbp), endogenous in ovaries (Drosophila (endogenous in ovaries)) (UniProt P21187); test: co-IP; ovary extracts of flies expressing Venus-Mkrn1, IP buffer (1 X PBS, 0.4% Triton X-100, 1 mM MgCl2, 5% glycerol); IP with anti-pAbp Fab antibody or α-eIF4G rabbit antibody overnight at 4°C, protein A agarose; RNase A when present; western blot

B1: FLAG-tagged Mkrn1 (FLAG-Mkrn1) in S2R+ cells (protein, UniProt Q9VP20 1-386)
chain: MSAVTSSDTAISGMALGRSQTICRYYVRGICRFGELCRFSHDLSRGRPECEEQVATDVLPKPSTSSSSTIGSRSASISSQQRNWANAPVFVPSQKRYTAHEQSEFETTVDPEAVMEAQAGASYDTLAPGVSWAEVVGGPSSLNKEDYGEENSSCAWGEFSAYPIHMELCEMCDQYCLHPTDQVQRRSHNRECLQQHEQAMELSFAIARSKDKTCGICFDTIMEKAGREKRFGILPNCNHIFCLECIRTWRQAKQFENKITRACPECRVCSDFVCPSAFWMETKEEKDKLLNDYRAALGAKDCKYFKKGEGKCPFGNKCFYKHALPNGDIVDVGLPKRTRKLQSQNEIIDLLDIYLWDYVDRRDYHWLEMISSDITSSESSDYSDED
[1]
  binding: binds

B2: FLAG-tagged Mkrn1 with mutated PAM2 motif (Mkrn1^PAM2) (protein, UniProt Q9VP20 1-386)
chain: MSAVTSSDTAISGMALGRSQTICRYYVRGICRFGELCRFSHDLSRGRPECEEQVATDVLPKPSTSSSSTIGSRSASISSQQRNWANAPVAVASQKRYTAHEQSEFETTVDPEAVMEAQAGASYDTLAPGVSWAEVVGGPSSLNKEDYGEENSSCAWGEFSAYPIHMELCEMCDQYCLHPTDQVQRRSHNRECLQQHEQAMELSFAIARSKDKTCGICFDTIMEKAGREKRFGILPNCNHIFCLECIRTWRQAKQFENKITRACPECRVCSDFVCPSAFWMETKEEKDKLLNDYRAALGAKDCKYFKKGEGKCPFGNKCFYKHALPNGDIVDVGLPKRTRKLQSQNEIIDLLDIYLWDYVDRRDYHWLEMISSDITSSESSDYSDED
[1]
  binding: binds

B3: tagged Mkrn1^RING (protein, UniProt Q9VP20 1-386)
chain: MSAVTSSDTAISGMALGRSQTICRYYVRGICRFGELCRFSHDLSRGRPECEEQVATDVLPKPSTSSSSTIGSRSASISSQQRNWANAPVFVPSQKRYTAHEQSEFETTVDPEAVMEAQAGASYDTLAPGVSWAEVVGGPSSLNKEDYGEENSSCAWGEFSAYPIHMELCEMCDQYCLHPTDQVQRRSHNRECLQQHEQAMELSFAIARSKDKTCGICFDTIMEKAGREKRFGILPNCNEIFCLECIRTWRQAKQFENKITRACPECRVCSDFVCPSAFWMETKEEKDKLLNDYRAALGAKDCKYFKKGEGKCPFGNKCFYKHALPNGDIVDVGLPKRTRKLQSQNEIIDLLDIYLWDYVDRRDYHWLEMISSDITSSESSDYSDED
[2]
  binding: binds
[3]
  binding: binds
[4]
  binding: binds

B4: Venus-tagged Mkrn1 (Venus-Mkrn1) (protein, UniProt Q9VP20 1-386)
chain: MSAVTSSDTAISGMALGRSQTICRYYVRGICRFGELCRFSHDLSRGRPECEEQVATDVLPKPSTSSSSTIGSRSASISSQQRNWANAPVFVPSQKRYTAHEQSEFETTVDPEAVMEAQAGASYDTLAPGVSWAEVVGGPSSLNKEDYGEENSSCAWGEFSAYPIHMELCEMCDQYCLHPTDQVQRRSHNRECLQQHEQAMELSFAIARSKDKTCGICFDTIMEKAGREKRFGILPNCNHIFCLECIRTWRQAKQFENKITRACPECRVCSDFVCPSAFWMETKEEKDKLLNDYRAALGAKDCKYFKKGEGKCPFGNKCFYKHALPNGDIVDVGLPKRTRKLQSQNEIIDLLDIYLWDYVDRRDYHWLEMISSDITSSESSDYSDED
[5]
  binding: binds
